Data as given in PubChem BioAssay AID493014 (National Center for Advancing Translational Sciences (NCATS), 2011).
This is one part of the list. The main result of the screen is listed elsewhere. These columns were measured beside it and carry no call. The list favours compounds with an active or inconclusive main result. The note in brackets gives the kind of curve behind each potency; many fits are weak.

Test: qHTS Assay to Find Inhibitors of Chronic Active B-Cell Receptor Signaling
Conditions: ABC-DLBCL IkBa-CBG/CBR reporter, luminescence ratio (green luciferase fused to IkBa over red control in TMD8 lymphoma cells), 4 h
Summary of the method: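 Compounds up to 46 uM were incubated four hours with TMD8 cells whose green CBG68 luciferase is fused to IkappaBalpha; red CBR luminescence normalised the signal, and concentration-effect curves were fitted to fusion, red and ratio data.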

[1] = measured here: CBR red luminescence, cell number
[2] = measured here: IkBa-CBG green luminescence

Row | SMILES | AC50 [1] | AC50 [2]
1 | Cc1ccccc1NCC(=O)N/N=C\c1ccc2c(c1)OCO2 | 31.6 µM [falling, single point] | –
2 | COc1ccc(CC(=O)O/N=C(\N)Cc2cccc3ccccc23)cc1OC | 29.1 µM [rising, single point] | –
3 | S=C(c1ccc(-c2ccc(Cl)c(Cl)c2)o1)N1CCOCC1 | 5.8 µM [rising, partial curve, poor fit] | –
4 | CCCc1cc(-c2n[nH]c(=S)n2Cc2ccccc2)cs1 | 7.31 µM [rising, single point] | –
5 | CCOC(=O)N1CCN(c2ncnc3c2[nH]c2ccc(F)cc23)CC1 | 14.1 µM [falling, partial curve, poor fit] | –
6 | Cc1ccc(C(=O)NCC(c2cccs2)S(=O)(=O)c2cccs2)cc1C (stereo unspecified) | 22.4 µM [rising, single point] | –
7 | Cc1[nH]c2ccccc2c1C(=O)C(=O)NCCC1=CCCCC1 | 23.1 µM [rising, single point] | –
8 | Cc1ccc(S(=O)(=O)NC(=O)Nc2ccc(Cl)cn2)cc1 | 8.91 µM [rising, partial curve] | –
9 | C#CCOc1c(Cl)cc(/C=N/O)cc1OC | 3.66 µM [rising, partial curve] | –
10 | COc1cccc(C(=O)Nc2ccc(C)cc2)c1 | 9.2 µM [falling, partial curve, poor fit] | –
11 | Clc1ccc2nc(C3CCN(Cc4nnnn4C4CCCCC4)CC3)[nH]c2c1 | 0.0651 µM [falling, full curve, poor fit] | –
12 | Cc1ccc(C)c(NC(=S)Nc2ncccc2C)c1 | 17.8 µM [falling, single point] | –
13 | O=C(NC(=S)NNC(=O)[C@H]1C[C@@H]1c1ccccc1)c1cccc(F)c1 | 5.01 µM [rising, full curve, poor fit] | –
14 | COc1ccc(NC(=O)CC2C(=O)N(c3ccc(OC)cc3)C(=O)N2C(C)C)cc1 (stereo unspecified) | 29.1 µM [rising, single point] | –
15 | CN(Cc1nc(-c2cccnc2)no1)S(=O)(=O)c1ccccc1 | 0.326 µM [rising, full curve, poor fit] | –
16 | CCOC(=O)C(CC)Sc1nc2c(cnn2-c2ccccc2)c(=O)[nH]1 (stereo unspecified) | 8.2 µM [rising, partial curve, poor fit] | –
17 | Cc1nn(C)cc1/C=C/C(=O)c1ccccc1 | 16.4 µM [falling, partial curve] | –
18 | CCOc1cc(C(=O)Nc2ccc(S(=O)(=O)NC3=NCCCCC3)cc2)cc(Br)c1OC | 20.6 µM [falling, partial curve, poor fit] | –
19 | COc1cc2c(cc1OC)C1=NC(=O)CN1C(SCc1ccc(C)cc1)=N2 | 10.3 µM [falling, partial curve, poor fit] | –
20 | COC(=O)CC1Oc2ccc(C)cc2NC1=O (stereo unspecified) | 5.8 µM [rising, single point] | –
21 | Cc1ccc(-c2nc3ccc([N+](=O)[O-])cc3[nH]2)cc1 | 17.8 µM [falling, single point] | –
22 | O=[N+]([O-])c1cc([N+](=O)[O-])c2oc(-c3ccccc3)c(Br)c2c1O | 5.62 µM [rising, single point] | –

Row | SMILES | AC50 [1] | AC50 [2]
23 | COc1ccc(/C(N)=C/C(=O)C(C)(C)C)cc1 | 10 µM [rising, partial curve] | –
24 | COc1ccc(S(=O)(=O)N2Cc3ccccc3CC2C(=O)Nc2nccs2)cc1 (stereo unspecified) | 3.98 µM [rising, single point] | –
25 | COc1cccc(C(=O)N2N=C(c3ccccn3)CC2(O)C(F)(F)F)c1 (stereo unspecified) | 35.5 µM [falling, single point] | –
26 | Cc1ccc(CN=c2c([N+](=O)[O-])nn(-c3cccc(C)c3)n2O)cc1 | – | 2.82 µM [rising, full curve, poor fit]
27 | O=C(N/N=C/c1cc(Cl)ccc1O)C(=O)Nc1ccccc1OC(F)(F)C(F)F | 29.1 µM [falling, single point] | 6.51 µM [falling, single point]
28 | CSCCC(NC(=O)c1ccccc1)C(=O)NCCCn1nc(C)cc1C (stereo unspecified) | 29.1 µM [rising, single point] | –
29 | COc1ccc(CCNc2cc(C)nc3c(-c4ccccc4)c(C)nn23)cc1OC | 29.1 µM [falling, single point] | –
30 | COc1ccc(C(=O)C2CCCN(Cc3c(C)[nH]c4ccccc34)C2)c(OC)c1 (stereo unspecified) | 35.5 µM [falling, single point] | –
31 | O=C(O)c1cccc(NC(=S)NC(=O)c2cccc(OCc3ccccc3)c2)c1 | 35.5 µM [falling, single point] | –
32 | CCOC(=O)COc1ccc(S(=O)(=O)c2ccc(OCC(=O)OCC)cc2)cc1 | 16.4 µM [falling, single point] | –
33 | Clc1ccccc1CNc1ncnc2nc[nH]c12 | 7.31 µM [falling, partial curve] | –
34 | CCc1nnc(NC(=O)CCC(=O)N2CCN(Cc3cc(Cl)ccc3OC)CC2)s1 | 25.1 µM [falling, single point] | –
35 | Cc1ccc2cc(CN(C)S(C)(=O)=O)c(=O)[nH]c2c1 | 7.94 µM [rising, partial curve, poor fit] | –
36 | CC(=O)Nc1ccc(NC(=O)c2ccc(S(=O)(=O)N(C)c3ccccc3)cc2)cc1 | 25.9 µM [rising, single point] | –
37 | S=c1[nH]nc(COc2ccc(Cl)cc2)o1 | 10 µM [falling, partial curve, poor fit] | –
38 | CCCc1cc(=O)oc2c(C)c(OCC(=O)NCCCn3ccnc3)ccc12 | 35.5 µM [rising, single point] | –
39 | Cc1[nH]n(-c2ccc([N+](=O)[O-])cc2)c(=O)c1C=NCCc1ccc(S(N)(=O)=O)cc1 | 11.2 µM [falling, single point] | –
40 | COc1cc(OC)c(C2=NOC(C(=O)NCc3cccs3)C2)cc1Cl (stereo unspecified) | 35.5 µM [rising, single point] | 22.4 µM [falling, single point]
41 | COc1ccccc1/C=C1\SC(=S)N(CCC(=O)NNC(=O)c2ccccc2OC)C1=O | 3.55 µM [falling, full curve, poor fit] | –
42 | Cc1ccc(NC(=O)[C@H](C)NC(=O)C2CCN(C(=O)[C@@H](N)CC(C)C)CC2)cc1 | 31.6 µM [rising, single point] | –
43 | O=C(CCCn1c(SCC(=O)Nc2ccccc2Cl)nc2ccccc2c1=O)NCC1CCCO1 (stereo unspecified) | 10 µM [falling, partial curve, poor fit] | –
44 | O=C(O)c1cccc(-c2nnn(Cc3ccccc3Cl)n2)c1 | 0.651 µM [rising, full curve, poor fit] | –

Row | SMILES | AC50 [1] | AC50 [2]
45 | C[C@@]12C(=O)Nc3cc(Cl)ccc3C(=O)N1[C@H]1c3cc(Cl)ccc3OC[C@@H]1[C@@H]2c1ccccc1 | 2.91 µM [falling, full curve] | –
46 | COc1cc(NC(=S)NC(=O)c2cccs2)ccc1NC(=O)C(C)C | 3.98 µM [falling, full curve, poor fit] | –
47 | Cc1cccc(C)c1NC(=O)c1nc(S(=O)(=O)Cc2ccccc2)ncc1Cl | 35.5 µM [falling, single point] | –
48 | O=C(NC1CCCC1)C(c1ccsc1)N(Cc1ccco1)C(=O)Cc1cccs1 (stereo unspecified) | 35.5 µM [falling, single point] | –
49 | O=C(CN1C(=O)COc2ccc(Cl)cc21)Nc1nccs1 | 20.6 µM [rising, single point] | –
50 | CCc1ccc(/C=C(\Cl)c2nc3cc(Cl)ccc3c(=O)[nH]2)cc1 | 23.1 µM [falling, single point] | –
51 | CC1(OC(=O)CCc2ccccc2)C(=O)C=C2C=C(c3ccc(C#N)cc3)N(C3CCCCC3)C=C2C1=O (stereo unspecified) | 5.62 µM [rising, single point] | –
52 | CC(=O)Nc1nnc(SCC(=O)c2ccc(F)cc2)s1 | 20 µM [falling, single point] | –
53 | O=C1OC(c2ccc(Cl)cc2)=N/C1=C\C=C\c1ccco1 | 35.5 µM [falling, single point] | –
54 | CCOc1ccccc1NC(=O)Nc1cc(S(=O)(=O)N(C)C)ccc1C | 6.31 µM [rising, partial curve, poor fit] | –
55 | O=C(CCCN1C(=O)/C(=C\c2ccccc2)SC1=S)Nc1ccc(O)cc1C(=O)O | 3.98 µM [falling, partial curve] | –
56 | CCN(CC)CCCN(Cc1cc2cc(OC)c(OC)cc2[nH]c1=O)C(=O)Nc1ccccc1 | 9.2 µM [rising, partial curve, poor fit] | –
57 | Cc1oncc1C(=O)NC(C)C | 29.1 µM [rising, single point] | –
58 | CCOc1ccc(C(c2c(C)[nH][nH]c2=O)c2c(C)[nH][nH]c2=O)cc1OCC | 29.1 µM [falling, single point] | –
59 | Cn1ncc(Br)c1NC(=O)Nc1ccc(OC(F)(F)F)cc1 | 0.708 µM [rising, full curve, poor fit] | –
60 | CCOc1ccccc1NC(=O)CSc1nnc(NC(=O)c2ccco2)s1 | 0.224 µM [falling, full curve, poor fit] | –
61 | O=c1cc(CSc2ccccn2)c2ccccc2[nH]1 | 2.59 µM [falling, partial curve, poor fit] | –
62 | Cc1ccccc1S(=O)(=O)Cc1ccc(C(=O)NC2CCCCCC2)o1 | 0.447 µM [falling, full curve, poor fit] | –
63 | CC(C)(C)c1nc(NC(=O)Nc2ccccc2)sc1Br | 35.5 µM [falling, single point] | –
64 | COc1ccc(OC)c(S(=O)(=O)Nc2c(NC3CCCCC3)c3ccccc3oc2=O)c1 | 20 µM [falling, partial curve, poor fit] | –

Pulled by structure from the list above (2):
Row | SMILES | AC50 [1] | AC50 [2]
58 | CCOc1ccc(C(c2c(C)[nH][nH]c2=O)c2c(C)[nH][nH]c2=O)cc1OCC | 29.1 µM [falling, single point] | –
55 | O=C(CCCN1C(=O)/C(=C\c2ccccc2)SC1=S)Nc1ccc(O)cc1C(=O)O | 3.98 µM [falling, partial curve] | –
